Measurements from paper PMC10875573.
Results are given in words; binding and its absence hold for the method and conditions named. Some results given as binding are weak or reduced against the parent protein; the word gives no strength. Sequences can lack the tags named with a protein.

Amino acid sequences for entries named in this document (tags omitted).
UniProt P17302: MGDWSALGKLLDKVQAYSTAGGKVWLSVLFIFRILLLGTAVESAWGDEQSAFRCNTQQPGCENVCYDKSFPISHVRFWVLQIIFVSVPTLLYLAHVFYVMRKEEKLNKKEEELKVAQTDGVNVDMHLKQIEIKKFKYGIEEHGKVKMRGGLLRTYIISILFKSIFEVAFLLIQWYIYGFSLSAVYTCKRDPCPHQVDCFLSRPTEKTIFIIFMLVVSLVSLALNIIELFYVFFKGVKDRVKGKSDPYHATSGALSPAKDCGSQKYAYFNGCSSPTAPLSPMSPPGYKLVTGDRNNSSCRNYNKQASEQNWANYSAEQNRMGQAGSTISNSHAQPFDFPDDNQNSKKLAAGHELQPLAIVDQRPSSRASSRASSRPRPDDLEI

Biological target: T1, HA-PKCμ (amino-terminal hemagglutinin epitope-tagged PKCμ) (UniProt Q15139)
T1 sequence: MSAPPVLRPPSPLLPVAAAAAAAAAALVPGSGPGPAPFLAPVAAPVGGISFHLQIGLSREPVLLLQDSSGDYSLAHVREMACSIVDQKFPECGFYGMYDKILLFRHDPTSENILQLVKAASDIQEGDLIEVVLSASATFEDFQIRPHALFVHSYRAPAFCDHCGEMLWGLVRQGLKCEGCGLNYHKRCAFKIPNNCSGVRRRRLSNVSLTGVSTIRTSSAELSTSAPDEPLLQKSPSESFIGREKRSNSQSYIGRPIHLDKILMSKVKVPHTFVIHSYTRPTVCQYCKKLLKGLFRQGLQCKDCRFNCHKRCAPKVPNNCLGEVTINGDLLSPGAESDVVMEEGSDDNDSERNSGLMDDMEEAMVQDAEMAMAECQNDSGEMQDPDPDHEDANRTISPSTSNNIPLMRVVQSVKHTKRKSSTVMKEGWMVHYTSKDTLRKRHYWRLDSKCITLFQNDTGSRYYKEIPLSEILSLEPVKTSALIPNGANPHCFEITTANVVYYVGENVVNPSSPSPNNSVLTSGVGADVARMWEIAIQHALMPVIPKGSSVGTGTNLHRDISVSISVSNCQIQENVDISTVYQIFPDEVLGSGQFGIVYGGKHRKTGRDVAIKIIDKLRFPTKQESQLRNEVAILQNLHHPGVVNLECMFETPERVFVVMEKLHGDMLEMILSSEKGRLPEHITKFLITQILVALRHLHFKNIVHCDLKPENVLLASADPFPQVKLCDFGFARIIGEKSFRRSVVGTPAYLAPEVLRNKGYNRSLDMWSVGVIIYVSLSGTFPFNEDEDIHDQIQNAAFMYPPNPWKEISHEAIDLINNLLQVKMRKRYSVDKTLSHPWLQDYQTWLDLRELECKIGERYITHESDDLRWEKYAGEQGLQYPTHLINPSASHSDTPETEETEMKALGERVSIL
Assay: pull-down; HA-PKCμ immunoprecipitated from transfected HEK 293T cells and kept on HA antibody agarose beads; GST-Cx43 or GST in 125 mM Tris-HCl pH 8.0, 150 mM NaCl added, 3 hours at 4°C; beads washed three times with cold PBS; western blot for GST and HA; both purified

Q: “GST-Cx43 (glutathione S-transferase fused to the amino-terminus of full-length Connexin 43) (from UniProt P17302 1-382)” was tested. Which binding did it give?
A: binds
